# PubChem BioAssay AID652272, Drosophila RNAi Screening Center | 2013
# Test: 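Finding fly genes that regulate Hedgehog signal transduction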 (primary screen)
# Cell system: Drosophila clone 8 (Cl8) cells
# Reagent: long dsRNA against Drosophila genes
# Detection: 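Plate reader light from a firefly reporter under a ptc promoter fragment that responds to Hedgehog, with Renilla light as transfection reference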
# Scale: firefly Hh reporter signal: higher = more ptc reporter light; Renilla reference signal: higher = more Renilla control light
# Hit rule: 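Called a hit if the two-replicate mean z-score lies below -2 or above +3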
# Meaning of the calls: active = hit: reporter lowered or raised; inactive = not a hit
# The screen tested about 21,000 reagents; below is a random part of those with a known target gene and a result. In the full data, 503 (2.4%) are marked active. 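Raw plate light values, not normalised; calls rest on replicate z-scores that were not deposited; hits include reporter decreases as well as increases.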 Entries without a mark were called inactive. Reagents against one gene are numbered here. Names joined by + are all predicted targets of the reagent. Not stated in the record: the amount of reagent, the time to read-out.
predicted target,reagent,"firefly Hh reporter signal, replicate 1","firefly Hh reporter signal, replicate 2","firefly Hh reporter signal, replicate 3","Renilla reference signal, replicate 1","Renilla reference signal, replicate 2"
Cyp6g1,1,1.07e5,55368,,4440,2226
Zcchc7,1,46291,31130,,2405,1557
Jhbp4,1,67253,79997,,1754,5237
CG13616,1,5.50e5,1.01e5,,27990,3581
CG14854,1,90485,99255,,3305,2532
Nelf-A,1,1.23e5,1.17e5,,5561,5108
CG13032,1,1.62e5,,,2055,8009
SP2353,1,55096,25800,,1403,1824
CG15891 + CG15892,1,1.74e5,98752,,3244,1680
CG15891 + CG15892,2,85867,2.48e5,,2320,8258
CG18675,1,80612,47877,,1962,3321
Fie,1,1.20e5,1.28e5,,4836,4864
LManII,1,92186,66945,,3510,2873
Cyp28c1,1,74936,2.33e5,,1963,8219
CG34232,1,1.43e5,1.91e5,,3939,9819
barr,1,66925,34375,,1789,3447
Prtl99C,1,70214,99600,,1826,4802
CG11426,1,1.04e5,78627,,3496,1569
CG5653,1,53201,56116,,6343,3702
CG10104,1,1.09e5,55744,,2688,4469
CG3746,1,95173,52617,,2608,5319
CG5181,1,70518,69005,,3143,3444
CG8001,1,1.17e5,96555,,5962,4434
sff,1,71865,46413,,3147,1431
Tfb4,1,1.23e5,97852,,2501,1744
wnd,1,4.22e5,,,8880,
wnd,2,60800,89728,,2674,3367
e(y)3,1,70146 (active),62384,,2907,2891
Cdk2,1,1.45e5,78965,,6184,3429
CG13705,1,95018,86858,,7442,6224
CG5758,1,63243 (active),5.18e5,34685,2369,31357
CG5758,2,86106,60249,,2589,5418
CG4945,1,85637,70860,,4016,2731
asRNA:CR31514 + CG12947,1,58567,1.27e5,,1969,3138
Dark,1,1.79e5,87739,,7282,3203
eEF1gamma,1,45828,44833,,1652,2169
Not10,1,1.05e5,98045,,4720,3894
Prp38,1,61920,50354,,2183,1940
sand,1,59473,42898,,1584,4209
Cyp6a14,1,75805,28835,,1872,2758
Acox57D-d,1,1.32e5,66896,,4874,2521
Pgk,1,1.53e5,98816,,3509,2363
CG14095,1,1.33e5,1.07e5,,4728,2904
CG5078,1,89568,68109,,3395,1911
fwe,1,4.20e5,,,9184,
fwe,2,1.21e5,79168,,4720,2883
CG34315 + Orc3,1,1.16e5,41708,,4249,672
mei-W68,1,58251,67414,,1467,4317
Tmem131,1,69697,69584,,3435,2522
Hsepi,1,94736,63586,,2300,6048
SmydA-4,1,1.31e5,5.75e5,3.18e5,4148,5240
CG14275,1,1.09e5,86289,,2944,6048
Eip75B,1,2.66e5,,,6080,
Eip75B,2,43707,29430,,2124,1143
polybromo,1,1.11e5,61163,,4385,2620
Or22b,1,1.30e5,84717,,2784,2230
Cul3,1,80136,49397,,2861,2161
dib,1,1.07e5,65537,,3916,2475
Aps,1,76456,86981,68693,5024,5623
CG13671,1,1.26e5,1.30e5,,5670,5568
CG8642,1,94341,47196,,2427,4152
Capr,1,1.29e5,,,4986,3880
CG13062,1,1.26e5,,,1656,3781
CG30380,1,1.01e5,2.36e5,,6482,8929
CG11741,1,77656,1.55e5,,3634,4260
bcd,1,1.36e5,90823,,5675,3851
CG14668,1,47251,96197,,1923,2864
CG6678,1,1.07e5,79319,,4328,3347
CG33310,1,79584,58841,,2218,5814
CCDC53,1,74045,34368,,2346,3852
CG11581,1,83976,2.46e5,,2280,9962
CG32551,1,4.89e5,2.18e5,,25979,2819
CG3587,1,1.48e5,6.42e5,89221,3524,33949

Limited to “Renilla reference signal, replicate 1” (7 entries from above):
Capr: 4986
CG13062: 1656
CG30380: 6482
CG11741: 3634
bcd: 5675
CG14668: 1923
CG6678: 4328
